Assay results from the supplement of paper PMC4635364.
Some of the results follow. Single values are uncertain here, since repeats match poorly.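 Cells: ReNCell VM human fetal ventral-midbrain neural progenitors, differentiated mitogen-free. Blinded raters compared doublecortin-stained (early neurons) or tyrosine hydroxylase-stained (dopaminergic neurons) images with untreated wells, where 0 means no change. After repeats and both raters were averaged, compounds scoring 2 or above became hits for retesting.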

The compounds below were run on ReNCell VM (assay: dopaminergic neuron differentiation score (TH+ cell fraction vs untreated, manual image score) (score (0 to 3)); higher = more TH+ dopaminergic neuron differentiation). Details: library: Spectrum; 2 uM; 4 weeks; BDNF 10 ng/ml + GDNF 10 ng/ml.

Structure (SMILES) | dopaminergic neuron differentiation score
Cc1scc2c1N(C(=O)CN1CCN(C)CC1)c1ccccc1NC2=O | inactive: 0
CCCCCCCCCC(=O)N[C@@H](Cc1c[nH]c2ccccc12)C(=O)N[C@@H](CC(N)=O)C(=O)N[C@@H](CC(=O)O)C(=O)N[C@@H]1C(=O)NCC(=O)N[C@@H](CCCN)C(=O)N[C@@H](CC(=O)O)C(=O)N[C@H](C)C(=O)N[C@@H](CC(=O)O)C(=O)NCC(=O)N[C@H](CO)C(=O)N[C@@H]([C@H](C)CC(=O)O)C(=O)N[C@@H](CC(=O)c2ccccc2N)C(=O)O[C@@H]1C [DAPTOMYCIN (5 millimolar/DMSO)] | inactive: 0
COc1cc([C@@H]2c3cc4c(cc3[C@@H](O[C@@H]3O[C@@H]5CO[C@@H](c6cccs6)O[C@H]5[C@H](O)[C@H]3O)[C@H]3COC(=O)[C@H]23)OCO4)cc(OC)c1O | inactive: 0
C[C@H](CS)C(=O)N1CCC[C@H]1C(=O)O | inactive: 0
COc1cccc(OC)c1C(=O)N[C@@H]1C(=O)N2[C@@H]1SC(C)(C)[C@@H]2C(=O)O | inactive: 0
CC1(C)C[C@@H]2C(=O)CC[C@H]3O[C@]3(C)CC[C@H]21 | inactive: 0
CS(=O)(=O)c1ccc([C@@H](O)[C@@H](CF)NC(=O)C(Cl)Cl)cc1 | inactive: 0
O=C(c1cccnc1)N1CCOCC1 | inactive: 0
O=C1C[C@@H](c2ccc(O)cc2)Oc2cc(O)cc(O)c21 | inactive: 0
C[C@@H]1CC[C@@]23CCC4(C)[C@@](C=CC5[C@@]6(C)CCC(=O)C(C)(C)C6CC[C@]54C)(OC2=O)C3[C@H]1C (stereo partly drawn) | inactive: 0
COc1c2occc2cc2ccc(=O)oc12 | inactive: 0
COc1cc2c3cc1Oc1cc(ccc1O)C[C@@H]1c4c(cc(OC)c(O)c4Oc4ccc(cc4)C[C@@H]3N(C)CC2)CC[N+]1(C)C | inactive: 0
CC(C(=O)O)c1ccc(-c2ccccc2)c(F)c1 (stereo not drawn) | inactive: 0
COc1cnc(NS(=O)(=O)c2ccc(N)cc2)nc1 | inactive: 0
NNCCc1ccccc1 | inactive: 1
C[C@H]1[C@H](C)CC[C@]2(C(=O)O)CC[C@]3(C)C(=CC[C@@H]4[C@@]5(C)C[C@@H](O)[C@H](O)[C@@](C)(CO)[C@@H]5[C@H](O)C[C@]43C)[C@H]12 | inactive: 0
COc1ccc2c(c1)OC/C(=C\c1ccc(OC)c(O)c1)C2=O | inactive: 0
CC1CCc2c(N3CCC(O)CC3)c(F)cc3c(=O)c(C(=O)O)cn1c23 (stereo not drawn) | inactive: 1
